This note sets out measurements from patent publication US10308686B2 (priority 2012, dated 2019).

For part of these data: HELM strings list residues between dots; [ac] is acetyl, [am] amide, other brackets name non-standard units.

The subject of the first series is human red blood cells (hRBC's). Description: Hemolysis assay. Type of series: cell-based. As to conditions: H50/the MIC of S. aureus. As for the experimental part:
Freshly drawn human red blood cells (hRBC's) with additive K2 EDTA (spray-dried) were washed with PBS buffer several times and centrifuged at 1000 g for 10 min until a clear supernatant was observed. The hRBC's were resuspended in 1×PBS to get a 5% v/v suspension. Two-fold serial dilutions of γ-AApeptides dissolved in 1×PBS from 250 μg/ml through 1.6 μg/ml were added to a sterile 96-well plate to make up a total volume of 50 μL in each well. Then 50 μL of 5% v/v hRBC solution was added to make up a total volume of 100 μL in each well. The 0% hemolysis point and 100% hemolysis point were determined in 1×PBS and 0.2% Triton-X-100, respectively (Patch et al., 2003). The plate was then incubated at 37° C. for 1 h and centrifuged at 3500 rpm for 10 min. The supernatant (30 μL) was diluted with 100 μL of 1×PBS and absorption was detected by measuring the optical density at 360 nm by Biotek Synergy HT microtiter plate reader. % hemolysis was determined by the following equation: % hemolysis=(Abssample−AbsPBS)/(AbsTriton−AbsPBS)×100 H50 is the concentration of γ-AApeptide amphiphiles at which 50% hemolysis was observed. […] Fluorescence Microscopy
The sequences shown in FIG. 12 were also evaluated via hemolytic assays. […] The 0% hemolysis point and 100% hemolysis point were determined in 1×PBS and 0.2% Triton-X-100, respectively (Patch et al., 2003). […]
As for `CCCCCCCC/C=C\CCCCCCCC(=O)N[C@@H](CCCCN)CN(CC(N)=O)C(=O)CCCN` [Sequence 10], the selectivity is on record as 25.
The same measure, in the same setting: the same measure for `CCCCCCCCCCCCCCCC(=O)N[C@@H](CCCCN)CN(CC(N)=O)C(=O)CCCN` [Sequence 2]: 16.

System in a further series: not listed separately
Kind of series: general procedure: Fmoc solid-phase peptide synthesis; Knorr resin; Rink amide resin; DIC/DhbtOH; PyBop/HOBt/DIEA for cyclization. As to conditions: whole synthesis, based on loading of the resin.
“PEPTIDE1{[gF-mp].[gF-mp].[gK-hc].[gK-hc].[gK-hc].[gK-hc].[gF-suc].[am]}$PEPTIDE1,PEPTIDE1,1:R1-7:R3$$$V2.0” displayed an isolated yield of 6.0%.
“PEPTIDE1{[gK-hc].[gK-hc].[gK-hc].[gK-hc].[gK-hc].[gF-suc].[am]}$PEPTIDE1,PEPTIDE1,1:R1-6:R3$$$V2.0” had an isolated yield of 8.6%.
Same read-out and setting: as for “PEPTIDE1{[gK-hc].[gK-hc].[gK-hc].[gK-hc].[gK-hc].[gK-hc].[gF-suc].[am]}$PEPTIDE1,PEPTIDE1,1:R1-7:R3$$$V2.0”, the figure is 6.2%.
In the case of “PEPTIDE1{[gK-hc].[gF-mp].[gK-hc].[gK-hc].[gF-mp].[gK-hc].[gF-suc].[am]}$PEPTIDE1,PEPTIDE1,1:R1-7:R3$$$V2.0”, the isolated yield turned out to be 6.5%.
